No constants are given. Whether binding was seen depends on the method and setting. Some entries that bind do so weakly or less than the wild type.
Target: FGFR1c kinase domain (residues 458-765; FGFR1K) (UniProt P11362)
Assay: cross-linking; DSP cross-linking of FGFR1K in solution (control) and in the presence of peptide NTA(Ni)-nanodiscs at lipid:peptide ratios of 1:1, 1:3 and 1:9; FGFR1K oligomer and monomer semi-quantitated; both purified

By UniProt entry, the sequences of proteins in these tests, tags left out. Residues count along the entry.
UniProt P11362, residues 458-765: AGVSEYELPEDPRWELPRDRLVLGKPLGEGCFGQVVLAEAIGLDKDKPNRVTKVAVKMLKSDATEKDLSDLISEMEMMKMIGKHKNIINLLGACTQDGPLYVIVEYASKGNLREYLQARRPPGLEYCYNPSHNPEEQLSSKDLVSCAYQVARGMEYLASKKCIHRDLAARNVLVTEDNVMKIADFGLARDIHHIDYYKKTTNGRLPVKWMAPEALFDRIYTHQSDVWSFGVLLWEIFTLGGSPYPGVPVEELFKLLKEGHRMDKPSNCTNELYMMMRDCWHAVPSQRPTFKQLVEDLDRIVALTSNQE

With “FGFR1c kinase domain (residues 458-765; FGFR1K) (from UniProt P11362 458-765) (domain or fragment)” the binding was “binds”.
